The text below walks through data of paper PMC7093472.

Amino acid sequences for entries named in this document (tags omitted).
UniProt Q96EB6: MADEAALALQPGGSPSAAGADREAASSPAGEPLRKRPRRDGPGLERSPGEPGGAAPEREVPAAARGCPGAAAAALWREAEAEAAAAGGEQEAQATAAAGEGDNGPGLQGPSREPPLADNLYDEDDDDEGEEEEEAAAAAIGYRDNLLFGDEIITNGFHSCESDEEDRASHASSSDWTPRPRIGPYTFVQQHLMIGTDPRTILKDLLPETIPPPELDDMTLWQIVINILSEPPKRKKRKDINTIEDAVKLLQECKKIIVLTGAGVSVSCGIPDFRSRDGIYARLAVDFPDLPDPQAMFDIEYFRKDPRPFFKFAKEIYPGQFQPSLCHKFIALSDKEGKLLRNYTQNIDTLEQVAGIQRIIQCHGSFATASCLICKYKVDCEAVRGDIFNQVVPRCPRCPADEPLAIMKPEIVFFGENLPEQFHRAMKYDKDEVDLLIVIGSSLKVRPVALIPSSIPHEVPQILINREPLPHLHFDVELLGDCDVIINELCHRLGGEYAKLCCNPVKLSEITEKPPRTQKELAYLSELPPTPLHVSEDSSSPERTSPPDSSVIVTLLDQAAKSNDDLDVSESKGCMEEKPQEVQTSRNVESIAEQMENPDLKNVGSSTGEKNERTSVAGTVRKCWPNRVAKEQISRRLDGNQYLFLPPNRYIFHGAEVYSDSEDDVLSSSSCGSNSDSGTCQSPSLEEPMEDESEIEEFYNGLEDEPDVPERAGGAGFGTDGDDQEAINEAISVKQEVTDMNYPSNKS
UniProt Q92731: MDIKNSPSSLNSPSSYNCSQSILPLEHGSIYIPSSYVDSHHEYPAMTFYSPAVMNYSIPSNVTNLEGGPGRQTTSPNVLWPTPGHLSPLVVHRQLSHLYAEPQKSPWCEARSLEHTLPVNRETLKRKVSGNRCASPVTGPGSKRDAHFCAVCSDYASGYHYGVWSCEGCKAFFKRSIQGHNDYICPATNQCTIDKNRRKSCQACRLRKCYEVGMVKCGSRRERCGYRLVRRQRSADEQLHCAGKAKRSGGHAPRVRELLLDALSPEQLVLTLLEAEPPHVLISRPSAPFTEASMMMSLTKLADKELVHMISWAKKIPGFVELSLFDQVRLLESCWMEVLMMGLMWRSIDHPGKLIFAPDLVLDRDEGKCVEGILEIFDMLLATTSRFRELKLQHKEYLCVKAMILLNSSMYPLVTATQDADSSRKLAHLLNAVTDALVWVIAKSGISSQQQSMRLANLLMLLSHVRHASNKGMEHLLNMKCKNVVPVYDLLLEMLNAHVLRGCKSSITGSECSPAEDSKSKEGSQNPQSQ
UniProt P03372: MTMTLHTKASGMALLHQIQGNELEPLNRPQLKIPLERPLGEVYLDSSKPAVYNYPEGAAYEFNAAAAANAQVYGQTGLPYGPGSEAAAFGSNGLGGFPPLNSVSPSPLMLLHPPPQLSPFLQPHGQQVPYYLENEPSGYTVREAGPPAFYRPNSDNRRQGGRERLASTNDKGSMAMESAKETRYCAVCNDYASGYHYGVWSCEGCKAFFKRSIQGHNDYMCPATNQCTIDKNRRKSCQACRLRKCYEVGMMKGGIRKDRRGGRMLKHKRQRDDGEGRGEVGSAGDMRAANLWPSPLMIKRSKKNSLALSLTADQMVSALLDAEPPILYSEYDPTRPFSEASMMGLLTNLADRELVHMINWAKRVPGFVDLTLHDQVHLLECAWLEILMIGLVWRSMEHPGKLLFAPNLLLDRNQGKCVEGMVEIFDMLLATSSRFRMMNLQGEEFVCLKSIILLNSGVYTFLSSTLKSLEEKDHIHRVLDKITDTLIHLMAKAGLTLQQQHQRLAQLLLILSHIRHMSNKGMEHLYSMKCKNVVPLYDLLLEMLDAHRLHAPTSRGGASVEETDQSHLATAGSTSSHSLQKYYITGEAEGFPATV

These are yes or no findings as the source states them, for the method shown. In cells and extracts the contact can be indirect. Some binding calls cover weakened binding; strength is not graded here.

Test [1] addresses GST-SIRT1 (silent information regulator 2 homologue 1) (human) (UniProt Q96EB6). The test can be described thus: pull-down; GST-SIRT1 immobilized on glutathione sepharose beads, 35S-labelled in vitro translated ERα or ERβ in solution; 20 mM HEPES pH 7.5, 150 mM NaCl, 0.1 mM EDTA, 10% glycerol, 0.05% NP-40; 2 h at 4 °C; with 0.1% DMSO, 1 µM E2, 100 µM of the dSTACs or various concentrations of resveratrol; fluorography; only the target purified.

Test [2] shares this target. In words: pull-down; as a1, with 100 µM resveratrol (highest dose of the series in Figure 4); only the target purified.

Take “oestrogen receptor beta (ERβ), in vitro translated (from UniProt Q92731 1-530)”: the binding result in test [1] is reported as “binds weakly”.

Take “oestrogen receptor alpha (ERα), in vitro translated (from UniProt P03372 1-595)”: the binding result in test [2] was “binds weakly”; in test [1], “binds”.
